Reference: paper PMC12701074
Read-outs that look alike come from different tables or passages of the source. These are yes or no findings as the source states them, for the method shown. Binding seen in cells or lysates may run through a third protein. Some entries that bind do so weakly or less than the wild type. Each block holds one molecule with its values, some of them ahead of it.

Chains of the proteins cited; added tags and fusions are not shown.
UniProt P41091: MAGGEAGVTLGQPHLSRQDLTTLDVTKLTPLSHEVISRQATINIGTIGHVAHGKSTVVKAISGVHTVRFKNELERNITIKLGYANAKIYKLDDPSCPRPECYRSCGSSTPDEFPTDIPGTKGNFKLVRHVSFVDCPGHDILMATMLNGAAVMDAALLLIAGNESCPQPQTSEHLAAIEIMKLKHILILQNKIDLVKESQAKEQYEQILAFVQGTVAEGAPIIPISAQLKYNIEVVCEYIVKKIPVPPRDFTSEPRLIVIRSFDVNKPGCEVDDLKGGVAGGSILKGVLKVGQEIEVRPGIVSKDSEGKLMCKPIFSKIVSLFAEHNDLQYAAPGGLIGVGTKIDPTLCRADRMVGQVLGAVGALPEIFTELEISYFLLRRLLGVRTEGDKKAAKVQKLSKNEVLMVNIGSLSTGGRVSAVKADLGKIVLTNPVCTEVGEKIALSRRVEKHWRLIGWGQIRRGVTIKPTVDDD
UniProt P07355: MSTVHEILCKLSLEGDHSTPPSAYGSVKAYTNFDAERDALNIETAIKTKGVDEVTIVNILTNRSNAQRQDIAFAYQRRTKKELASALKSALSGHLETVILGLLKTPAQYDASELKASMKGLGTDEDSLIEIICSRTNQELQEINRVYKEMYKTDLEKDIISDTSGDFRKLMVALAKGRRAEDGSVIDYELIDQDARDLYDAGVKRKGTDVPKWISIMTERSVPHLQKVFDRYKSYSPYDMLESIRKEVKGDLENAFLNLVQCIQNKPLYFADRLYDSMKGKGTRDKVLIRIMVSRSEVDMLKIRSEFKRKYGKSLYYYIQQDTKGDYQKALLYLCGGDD
UniProt P26641: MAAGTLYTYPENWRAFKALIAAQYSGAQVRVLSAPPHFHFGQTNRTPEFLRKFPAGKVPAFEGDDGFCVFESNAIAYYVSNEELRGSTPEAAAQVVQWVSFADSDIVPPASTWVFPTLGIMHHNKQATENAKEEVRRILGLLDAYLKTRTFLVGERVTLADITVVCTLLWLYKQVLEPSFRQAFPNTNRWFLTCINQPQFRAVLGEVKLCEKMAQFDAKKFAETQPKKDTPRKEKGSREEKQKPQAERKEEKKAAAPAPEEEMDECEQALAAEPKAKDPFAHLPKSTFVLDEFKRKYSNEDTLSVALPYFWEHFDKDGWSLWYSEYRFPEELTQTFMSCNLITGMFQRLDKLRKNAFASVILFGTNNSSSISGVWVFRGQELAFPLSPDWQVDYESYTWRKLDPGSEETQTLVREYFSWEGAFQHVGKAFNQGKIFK
UniProt P29692: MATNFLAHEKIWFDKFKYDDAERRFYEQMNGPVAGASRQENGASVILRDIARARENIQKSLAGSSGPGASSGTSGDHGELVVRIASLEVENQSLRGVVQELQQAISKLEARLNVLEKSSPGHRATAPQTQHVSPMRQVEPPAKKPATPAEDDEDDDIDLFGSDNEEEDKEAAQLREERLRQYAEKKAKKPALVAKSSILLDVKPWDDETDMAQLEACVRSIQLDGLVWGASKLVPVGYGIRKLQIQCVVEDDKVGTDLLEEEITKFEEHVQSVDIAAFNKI
UniProt O75794: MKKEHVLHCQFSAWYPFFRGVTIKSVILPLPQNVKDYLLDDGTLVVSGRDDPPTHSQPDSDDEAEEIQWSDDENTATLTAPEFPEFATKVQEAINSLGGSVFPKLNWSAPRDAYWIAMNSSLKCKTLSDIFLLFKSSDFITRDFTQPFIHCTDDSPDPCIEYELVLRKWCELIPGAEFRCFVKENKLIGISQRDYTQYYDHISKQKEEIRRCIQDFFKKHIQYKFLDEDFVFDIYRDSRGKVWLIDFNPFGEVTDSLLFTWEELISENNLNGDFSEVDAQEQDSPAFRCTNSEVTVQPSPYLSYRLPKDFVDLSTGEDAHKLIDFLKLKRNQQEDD
UniProt P60903: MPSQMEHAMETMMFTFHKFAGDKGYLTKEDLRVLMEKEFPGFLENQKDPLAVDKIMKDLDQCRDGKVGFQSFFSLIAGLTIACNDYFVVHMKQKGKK
UniProt P68104: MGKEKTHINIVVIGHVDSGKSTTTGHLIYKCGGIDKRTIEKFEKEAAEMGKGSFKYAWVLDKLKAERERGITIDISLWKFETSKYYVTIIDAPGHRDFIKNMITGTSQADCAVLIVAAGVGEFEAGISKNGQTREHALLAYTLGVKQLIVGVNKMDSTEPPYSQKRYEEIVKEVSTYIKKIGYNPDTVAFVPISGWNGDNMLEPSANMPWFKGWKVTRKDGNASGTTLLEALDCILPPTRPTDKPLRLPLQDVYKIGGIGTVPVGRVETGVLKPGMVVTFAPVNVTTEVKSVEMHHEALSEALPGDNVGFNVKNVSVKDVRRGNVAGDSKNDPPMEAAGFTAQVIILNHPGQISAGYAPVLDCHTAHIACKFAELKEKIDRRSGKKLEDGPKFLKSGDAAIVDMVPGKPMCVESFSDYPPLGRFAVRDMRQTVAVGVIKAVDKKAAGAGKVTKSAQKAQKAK

Experiments:
Assay in all cases: cross-linking; in vivo cross-linking of intact HEK 293 cells in PBS with 2 mM SIA, 1 mM SIAB or 2 mM SBAP (lysine-cysteine linkers), 30 min, 37 °C (room temperature for SIAB); cross-linked peptides oxidised and identified by LC-MSn and stepped-HCD MS2
[1] = target: EIF2S3 (human (endogenous in HEK 293)) (UniProt P41091)
[2] = target: ANXA2 (human (endogenous in HEK 293)) (UniProt P07355)
[3] = target: eEF1G (human) (UniProt P26641)
[4] = target: T1, eEF1B2 (human) (UniProt P24534)
T1 sequence: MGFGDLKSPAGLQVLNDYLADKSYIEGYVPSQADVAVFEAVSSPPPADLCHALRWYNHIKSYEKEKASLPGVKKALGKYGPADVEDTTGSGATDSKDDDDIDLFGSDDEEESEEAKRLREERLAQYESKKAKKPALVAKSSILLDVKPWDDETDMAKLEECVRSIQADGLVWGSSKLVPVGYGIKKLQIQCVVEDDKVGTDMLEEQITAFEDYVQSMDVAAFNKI

[5] = target: eEF1D (human) (UniProt P29692)
[6] = target: eEF1D (human) (UniProt P29692); remark: listed apart in the source

- binding [1]: binds
Molecule: CDC123 (from UniProt O75794 1-336)

- binding [2]: binds
Molecule: S100A10 (from UniProt P60903 1-97)

- binding [3]: binds
- binding [4]: binds
Molecule: eEF1A1 (from UniProt P68104 1-462)

- binding [5]: binds
- binding [4]: binds
Molecule: eEF1G (from UniProt P26641 1-437)

- binding [6]: binds
B1: eEF1B2 (protein, UniProt P24534 1-225)
chain: MGFGDLKSPAGLQVLNDYLADKSYIEGYVPSQADVAVFEAVSSPPPADLCHALRWYNHIKSYEKEKASLPGVKKALGKYGPADVEDTTGSGATDSKDDDDIDLFGSDDEEESEEAKRLREERLAQYESKKAKKPALVAKSSILLDVKPWDDETDMAKLEECVRSIQADGLVWGSSKLVPVGYGIKKLQIQCVVEDDKVGTDMLEEQITAFEDYVQSMDVAAFNKI
